Assay results reported in publication PMC4065004.
These are yes or no findings as the source states them, for the method shown. In cells and extracts the contact can be indirect. Some entries that bind do so weakly or less than the wild type.

By UniProt entry, the sequences of proteins in these tests, tags left out. Residues count along the entry.
GPR56^N, the N-terminal fragment of GPR56 (Q8K209, residues 26-381): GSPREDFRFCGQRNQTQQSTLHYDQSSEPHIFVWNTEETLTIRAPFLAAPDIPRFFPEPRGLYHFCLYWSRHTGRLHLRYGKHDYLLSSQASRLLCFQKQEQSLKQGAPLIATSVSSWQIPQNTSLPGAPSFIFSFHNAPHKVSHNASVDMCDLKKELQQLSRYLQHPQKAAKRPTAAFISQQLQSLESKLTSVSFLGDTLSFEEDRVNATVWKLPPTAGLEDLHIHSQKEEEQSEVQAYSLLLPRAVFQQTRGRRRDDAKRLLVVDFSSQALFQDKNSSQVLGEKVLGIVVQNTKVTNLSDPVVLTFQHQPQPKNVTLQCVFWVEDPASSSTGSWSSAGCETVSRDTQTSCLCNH
GPR56^C, the C-terminal fragment of GPR56 (wild type) (Q8K209, residues 382-687): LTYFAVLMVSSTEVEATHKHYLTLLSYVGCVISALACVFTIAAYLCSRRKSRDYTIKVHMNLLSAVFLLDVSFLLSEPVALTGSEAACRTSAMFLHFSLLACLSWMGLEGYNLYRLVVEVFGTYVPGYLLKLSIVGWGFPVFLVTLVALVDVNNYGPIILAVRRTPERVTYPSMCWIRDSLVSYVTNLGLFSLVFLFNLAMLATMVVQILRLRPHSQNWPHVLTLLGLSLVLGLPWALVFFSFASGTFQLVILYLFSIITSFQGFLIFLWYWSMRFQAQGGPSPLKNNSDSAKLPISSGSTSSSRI

Biological target: GPR56^C, the C-terminal fragment of GPR56 (wild type) (mouse) (UniProt Q8K209)
Test: co-IP; membrane fraction (Mem-PER kit) of HEK 293T cells transfected with wild type or L640R mutant Gpr56 cDNA, stimulated with collagen III or vehicle (acetic acid) for 5 minutes; precipitated with rabbit anti-GPR56^C (199) and protein G-Sepharose; GPR56^N detected with mouse anti-GPR56^N (H11)

binding: binds
Substance: GPR56^N, the N-terminal fragment of GPR56 (from UniProt Q8K209 26-381) (domain or fragment)
